In US20100092455A1 (PIERRE FABRE MEDICAMENT, published 2010):
Results are given in words; binding and its absence hold for the method and conditions named. Some results given as binding are weak or reduced against the parent protein; the word gives no strength.

Molecular target: T1, JAM-a (antigen of the binding assays of Example 11; form not stated) (UniProt Q9Y624)
T1 sequence (looked up): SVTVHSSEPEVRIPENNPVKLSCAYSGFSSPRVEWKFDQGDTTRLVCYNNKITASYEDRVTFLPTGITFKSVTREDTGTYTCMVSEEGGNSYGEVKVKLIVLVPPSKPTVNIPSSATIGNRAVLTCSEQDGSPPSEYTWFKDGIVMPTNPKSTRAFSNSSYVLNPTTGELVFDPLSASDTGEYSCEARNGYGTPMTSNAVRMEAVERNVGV
Test: ELISA, data not shown

binding: binds
B1: recombinant chimeric 6F4 antibody (antibody, V domains shown)
VH: EIQLQQSGPELVKPGASVKVSCKASGYSFTDYSMYWVKQSHGKSLEWIGYIDPYNGGTRYNQKFKGKATLTVDKSSSTAFMHLNSLTSEDSAVYYCARQTDYFDYWGQGTTLTVSS
VL: DIQMTQSPSSLSASLGGKVTITCKASQDINNYIAWYQHKPGKGPRLLIHYTSTLQAGIPSRFSGSGSGRDYSFSISNLEPEDIGTYYCLQYDNLWTFGGGTKLEIK
